Reference: patent US9364492B2, “Method for glycosylation of flavonoid compounds” (SUNTORY HOLDINGS LIMITED, priority 2007, dated 2016)

Assay: Taste evaluation with a taste sensor (artificial lipid membrane electrode)
Conditions: 200 ppm in distilled water; compared with green tea extract (TVG-1), the unglycosylated product

Row | SMILES | astringent taste
1 | O=C(O[C@@H]1Cc2c(O[C@H]3O[C@H](CO)[C@@H](O[C@H]4O[C@H](CO)[C@@H](O)[C@H](O)[C@H]4O)[C@H](O)[C@H]3O)cc(O)cc2O[C@@H]1c1cc(O)c(O)c(O)c1)c1cc(O)c(O)c(O)c1 [5GG-1, 5-O-(4-O-α-D-glucopyranosyl-α-D-glucopyranosyl)-(−)-epigallocatechin-3-O-gallate] | significantly lower level of astringent taste
2 | O=C(O[C@@H]1Cc2c(O)cc(O[C@H]3O[C@H](CO)[C@@H](O[C@H]4O[C@H](CO)[C@@H](O)[C@H](O)[C@H]4O)[C@H](O)[C@H]3O)cc2O[C@@H]1c1cc(O)c(O)c(O)c1)c1cc(O)c(O)c(O)c1 [7-O-(4-O-α-D-glucopyranosyl-α-D-glucopyranosyl)-(−)-epigallocatechin-3-O-gallate] | significantly lower level of astringent taste
3 | O=C(O[C@@H]1Cc2c(O)cc(O[C@H]3O[C@H](CO)[C@@H](O)[C@H](O)[C@H]3O)cc2O[C@@H]1c1cc(O)c(O)c(O)c1)c1cc(O)c(O)c(O)c1 [7-O-α-D-glucopyranosyl-(−)-epigallocatechin-3-O-gallate] | significantly lower level of astringent taste
4 | O=C(O[C@@H]1Cc2c(O[C@H]3O[C@H](CO)[C@@H](O)[C@H](O)[C@H]3O)cc(O)cc2O[C@@H]1c1cc(O)c(O)c(O)c1)c1cc(O)c(O)c(O)c1 [5-O-α-D-glucopyranosyl-(−)-epigallocatechin-3-O-gallate] | significantly lower level of astringent taste

Some entries repeat one wording, which the source may state once for all of them.
